Results reported in patent publication US20040234530A1.
These are yes or no findings as the source states them, for the method shown. Some results given as binding are weak or reduced against the parent protein; the word gives no strength.

By UniProt entry, the sequences of proteins in these tests, tags left out. Residues count along the entry.
UniProt P05155, residues 23-500: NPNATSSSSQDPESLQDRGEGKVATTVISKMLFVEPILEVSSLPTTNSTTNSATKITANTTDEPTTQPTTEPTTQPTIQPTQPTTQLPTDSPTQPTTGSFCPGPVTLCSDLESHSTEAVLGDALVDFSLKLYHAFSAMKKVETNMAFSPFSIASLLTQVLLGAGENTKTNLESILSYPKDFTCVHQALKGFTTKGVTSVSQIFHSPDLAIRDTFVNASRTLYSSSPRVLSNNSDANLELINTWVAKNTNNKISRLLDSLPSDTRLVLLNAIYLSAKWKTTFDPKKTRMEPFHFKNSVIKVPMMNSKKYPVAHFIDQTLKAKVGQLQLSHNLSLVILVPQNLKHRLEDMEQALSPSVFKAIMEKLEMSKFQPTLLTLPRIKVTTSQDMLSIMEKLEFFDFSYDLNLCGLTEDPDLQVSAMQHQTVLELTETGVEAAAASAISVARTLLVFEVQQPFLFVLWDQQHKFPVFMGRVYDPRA

Columns and labels:
[1] = molecular target: C1-esterase inhibitor (human plasma protease C1 inhibitor), purified or in human serum (human) (UniProt P05155); assay: Far Western blot of 2D-separated human serum fraction, detection with HRP anti-His antibody
[2] = molecular target: C1-esterase inhibitor (human plasma protease C1 inhibitor), purified or in human serum (human) (UniProt P05155); assay: Far Western blot, MALDI-MS of the spot

Substance: StcE-His (recombinant his-tagged form of StcE, from pWL107 in BL21(DE3), strain WAM2572) (from UniProt O82882 36-898) (enzyme)
- binding [1]: binds
- binding [2]: binds
